Test results as given in ChEMBL document CHEMBL4000220, “Optimization of spirocyclic proline tryptophan hydroxylase-1 inhibitors” (Bioorg Med Chem Lett, 2017).

Test: Drug level in rat hepatocytes treated with ethyl 8-(2-amino-6-((R)-1-(4-chloro-2-(3-methyl-1H-pyrazol-1-yl)phenyl)-2,2,2-trifluoroethoxy)pyrimidin-4-yl)-2,8-diazaspiro[4.5]decane-3-carboxylate
Format: ADME, cell-based, Hepatocyte

Drug metabolism: Metabolite_Detected
SMILES: Cc1ccn(-c2cc(Cl)ccc2[C@@H](Oc2cc(N3CCC4(CC3)CNC(C(=O)O)C4)nc(N)n2)C(F)(F)F)n1 (stereo partly specified)
